Experimental data from publication PMC8120287.
Results are given in words; binding and its absence hold for the method and conditions named. Binding seen in cells or lysates may run through a third protein. Some results given as binding are weak or reduced against the parent protein; the word gives no strength.

Chains of the proteins cited; added tags and fusions are not shown.
UniProt P10415: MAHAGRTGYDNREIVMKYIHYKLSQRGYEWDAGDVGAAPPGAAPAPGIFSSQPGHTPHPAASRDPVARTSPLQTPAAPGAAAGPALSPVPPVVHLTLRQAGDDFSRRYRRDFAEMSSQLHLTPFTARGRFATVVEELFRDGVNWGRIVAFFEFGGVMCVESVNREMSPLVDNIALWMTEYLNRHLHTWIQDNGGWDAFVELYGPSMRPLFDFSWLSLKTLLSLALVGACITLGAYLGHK
UniProt Q14457: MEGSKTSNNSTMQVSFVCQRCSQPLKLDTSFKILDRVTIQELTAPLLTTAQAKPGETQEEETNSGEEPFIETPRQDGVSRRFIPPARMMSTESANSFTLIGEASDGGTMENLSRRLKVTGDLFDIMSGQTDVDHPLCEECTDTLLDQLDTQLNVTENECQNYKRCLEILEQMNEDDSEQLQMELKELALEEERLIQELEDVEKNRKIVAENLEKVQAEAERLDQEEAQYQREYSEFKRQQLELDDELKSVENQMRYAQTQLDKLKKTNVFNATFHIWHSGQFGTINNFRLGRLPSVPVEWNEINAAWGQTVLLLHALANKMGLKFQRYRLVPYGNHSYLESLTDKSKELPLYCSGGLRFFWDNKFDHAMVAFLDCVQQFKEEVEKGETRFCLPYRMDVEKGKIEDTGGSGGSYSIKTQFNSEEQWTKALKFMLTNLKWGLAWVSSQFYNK

Target: Bcl-2 (human (endogenous in DLD1 and SW480)) (UniProt P10415)
Experiment: co-IP; endogenous proteins in lysates of DLD1 and SW480 cells transfected with NGFR overexpression or empty plasmid, NGFR shRNA or control plasmid, and treated with 5-FU; IP with Bcl-2 antibodies and Dynabeads Protein G, blot for Beclin-1, and the reverse with Beclin-1 antibodies, blot for Bcl-2

Beclin-1 (from UniProt Q14457 1-450) was tested. Which binding did it give?
The binding was “binds”.
